Test results: PubChem BioAssay AID540256 (National Center for Advancing Translational Sciences (NCATS), 2011)
The campaign covered roughly 300,000 compounds. About 3,700 (1.2%) were called active. Inconclusive means that the source gave no clear call. Such entries were picked first, then a sample of the others. Calls come from the whole dose curve; tested in HEK293 cells. Potencies of inconclusive entries are doubtful fits and often do not repeat.

assay: qHTS for Inhibitors of binding or entry into cells for Lassa Virus; details: Lassa virus pseudotype entry inhibition, cell reporter; series mostly up to 37.9 µM; note: nearly all actives have a fitted effect of over 50% in size
Potency is the fitted concentration of half-maximal effect.

Row | Structure (SMILES) | Potency
1 | Cc1cccc(NC(=O)CSc2nc3ccc(NC(=O)COc4ccccc4F)cc3s2)c1 | inactive
2 | OCCN1CCN(CCCN2c3ccccc3C=Cc3ccccc32)CC1 | inconclusive: 32.6 µM [inhibitor, single point]
3 | CCOC(=O)c1c(C)[nH]c(C(=O)C(C)Sc2ccc(Cl)cc2)c1C (configuration not stated) | inconclusive: 22.4 µM [inhibitor, single point]
4 | CCOc1ccc(NC(=S)NC(=O)/C=C/c2ccc(C)cc2)c([N+](=O)[O-])c1 | inconclusive: 17.8 µM [inhibitor, single point]
5 | COc1ccc(CCNC(=O)c2ccc3c(c2)N(Cc2ccccc2C)C(=O)c2ccccc2S3)cc1OC | inconclusive: 6.31 µM [inhibitor, single point]
6 | Cc1ccccc1NC(=S)N=Nc1c(O)n(C)c2ccc(S(=O)(=O)N3CCOCC3)cc12 | inconclusive: 29.1 µM [inhibitor, single point]
7 | Cc1ccc(/C=N/n2c(-c3ccc(Cl)cc3)n[nH]c2=S)s1 | inconclusive: 1.41 µM [inhibitor, full curve, poor fit]
8 | CC1CCC(=C(C#N)c2nc(-c3cc4ccccc4oc3=O)cs2)CC1 (configuration not stated) | inconclusive: 10.3 µM [activator, partial curve]
9 | COc1ccc2[nH]c(C(=O)NCc3ccccc3)c(C)c2c1 | inconclusive: 5.62 µM [inhibitor, full curve, poor fit]
10 | NNC(=S)NCc1ccccc1 | inconclusive: 2.24 µM [inhibitor, partial curve, poor fit]
11 | CC(=O)c1cccc(NC(=O)CCC2CCCC2)c1 | inconclusive: 10 µM [inhibitor, partial curve]
12 | Cc1oc(-c2cccc(Cl)c2)nc1Cn1c(SCc2ccccc2F)nc2ccncc21 | inactive
13 | O=C(O)COc1ccccc1/C=N/NC(=O)c1cc(-c2ccc(Cl)cc2)nc2ccccc12 | inactive
14 | CCc1ccc(S(=O)(=O)N/N=C(/C)c2ccncc2)cc1 | inconclusive: 31.6 µM [activator, single point]
15 | COc1ccc(/C=N/NC(=O)COc2cccc3ccccc23)c(C(=O)O)c1OC | inactive
16 | COc1ccc(CNC(=O)c2ccc(CNS(=O)(=O)c3ccc(F)cc3)cc2)cc1 | inactive
17 | Cc1ccc(S(=O)(=O)N2CCOCC2)cc1C(=O)Nc1nc(-c2cccnc2)cs1 | inactive
18 | COC(=O)c1sccc1S(=O)(=O)N(CC(=O)NCc1ccc(F)cc1)c1ccc(Cl)cc1 | inconclusive: 35.5 µM [inhibitor, partial curve, poor fit]
19 | CC1CCN(C(=O)COC(=O)CCC(=O)c2ccc(F)cc2)CC1 | inactive
20 | CCOC(=O)c1cc2ccccc2n1CCN(CC)CC | inconclusive: 8.2 µM [inhibitor, partial curve, poor fit]
21 | Cc1cccc2c(=O)n3c(nc12)CCCCC3 | inconclusive: 4.47 µM [activator, partial curve, poor fit]
22 | CC(C)CN(C(=O)COC(=O)C12CC3CC(CC(Cl)(C3)C1)C2)c1c(N)n(Cc2ccccc2)c(=O)[nH]c1=O | inconclusive: 35.5 µM [inhibitor, single point]
23 | Cc1nn(CC(=O)N2CCN(c3cccc(C(F)(F)F)c3)CC2)c(=O)c2cccn12 | inactive

Five compounds from above, ordered by length of the SMILES, rising.
Row | Structure (SMILES) | Potency
10 | NNC(=S)NCc1ccccc1 | inconclusive: 2.24 µM [inhibitor, partial curve, poor fit]
2 | OCCN1CCN(CCCN2c3ccccc3C=Cc3ccccc32)CC1 | inconclusive: 32.6 µM [inhibitor, single point]
15 | COc1ccc(/C=N/NC(=O)COc2cccc3ccccc23)c(C(=O)O)c1OC | inactive
16 | COc1ccc(CNC(=O)c2ccc(CNS(=O)(=O)c3ccc(F)cc3)cc2)cc1 | inactive
18 | COC(=O)c1sccc1S(=O)(=O)N(CC(=O)NCc1ccc(F)cc1)c1ccc(Cl)cc1 | inconclusive: 35.5 µM [inhibitor, partial curve, poor fit]

(further entries)

Row | Structure (SMILES) | Potency
24 | S=C(Nc1ccc(Cc2ccncc2)cc1)Nc1cccc(Cl)c1 | inactive
25 | O=C(COc1ccc(Cl)cc1)c1ccc(O)cc1O | inconclusive: 35.5 µM [inhibitor, partial curve, poor fit]
26 | Cc1ccccc1NC(=O)Cc1nc(CCl)cs1 | inactive
27 | Cc1ccc(OCc2cc(C(=O)N3CCc4sccc4C3)no2)cc1C | inconclusive: 17.8 µM [inhibitor, partial curve, poor fit]
28 | COc1ccc(C(=O)Nc2ccc(N3CCOCC3)cc2)cc1OC | inactive
29 | Cc1c(C2Nc3ccccc3C(=O)N2O)cnn1C (configuration not stated) | inconclusive: 0.82 µM [activator, single point]
30 | CCCC(=O)Nc1ccc(N2CCOCC2)cc1 | inconclusive: 0.0891 µM [activator, full curve, poor fit]
31 | CCOc1cc(C(=O)OCC(=O)Nc2c(C)cccc2C)ccc1OCC(=O)N1CCOCC1 | inactive
32 | O=C(O)C1C2C=CC(C2)C1C(=O)Nc1ccccc1Br (configuration not stated) | inconclusive: 1.26 µM [inhibitor, single point]
33 | CC1CCc2c(sc3nnn(CC(=O)Nc4ccc(Cl)cc4)c(=O)c23)C1 (configuration not stated) | inactive
34 | Cc1cccc[n+]1CC(=O)N1c2ccccc2Sc2ccccc21 | inconclusive: 5.62 µM [activator, single point]
36 | CCOc1cc(CNn2cn[nH]c2=S)cc(Cl)c1OCc1ccccc1F | inconclusive: 12.6 µM [inhibitor, partial curve, poor fit]
37 | O=C(CC(=O)c1ccccc1O)c1ccc(F)cc1 | inconclusive: 32.6 µM [inhibitor, single point]
38 | N#Cc1ccc(OCC(=O)NC2CCCCCC2)cc1 | inconclusive: 35.5 µM [activator, partial curve, poor fit]
39 | O=C1COc2ccc(-c3cc(-c4ccccc4)c4c(n3)-c3cc(Cl)ccc3OC4)cc2N1 | inactive
40 | COc1ccc(N2CCN(C(=S)NCCc3ccccc3)CC2)cc1 | inactive
41 | Cc1ccc2cccc(Oc3ncnc4scc(-c5ccc(Cl)cc5)c34)c2n1 | inactive
42 | Cc1ccc(C)c(NC(=O)CCc2c(C)nn(-c3ccc(N4CCCCC4)nn3)c2C)c1 | inconclusive: 35.5 µM [inhibitor, partial curve, poor fit]
43 | CN(c1ccc(C(=O)Nc2ccc3c(c2)OCCO3)cc1)S(C)(=O)=O | inactive
44 | CCOC(=O)c1cc(-c2ccncc2)nc2c1c(C)nn2-c1ccccn1 | inconclusive: 20.6 µM [inhibitor, partial curve]
45 | O=C(Nc1ccc(Cl)cc1C(=O)Nc1ccccn1)c1ccco1 | inconclusive: 15.8 µM [inhibitor, single point]
46 | O=C(Nc1ccc2c(c1)OCO2)c1ccc(Cl)cc1Cl | inconclusive: 5.01 µM [inhibitor, full curve, poor fit]

Row | Structure (SMILES) | Potency
47 | Cc1ccc(Oc2c(C(N)=O)cc([N+](=O)[O-])cc2[N+](=O)[O-])cc1 | inconclusive: 0.708 µM [inhibitor, full curve, poor fit]
48 | COc1ccccc1NCc1cc(=O)oc2c(C)c(O)ccc12 | inactive
49 | COc1ccc(-n2ncc(C(=O)N3CCOCC3)c2C2CCN(C(=O)OC(C)(C)C)CC2)cc1 | inconclusive: 7.08 µM [inhibitor, full curve, poor fit]
50 | CCn1c(SCC(=O)Nc2cccc(S(=O)(=O)N(C)c3ccccc3)c2)nnc1C1CC1 | inconclusive: 35.5 µM [inhibitor, single point]
51 | Nc1nonc1-n1nnc(C(=O)N/N=C/c2ccc(Cl)cc2)c1-c1ccc2c(c1)OCO2 | inconclusive: 8.91 µM [inhibitor, partial curve, poor fit]
52 | CCN(C(=O)C(C)OC(=O)C1C(C(=O)OC)=C(C)NC(C)=C1C(=O)OC)c1ccccc1 (configuration not stated) | inconclusive: 0.891 µM [inhibitor, full curve, poor fit]
53 | COc1ccc(NC(=O)CSc2nc(-c3ccco3)cc(C(F)(F)F)n2)cc1Cl | inconclusive: 4.47 µM [inhibitor, partial curve, poor fit]
54 | Fc1ccc(-c2cn3cc(Cc4ccccc4)sc3n2)cc1 | inconclusive: 10 µM [inhibitor, single point]
55 | COc1ccc(CNCCC(c2ccc(OC(C)C)cc2)c2ccccc2OC)cc1OC (configuration not stated) | inconclusive: 31.6 µM [inhibitor, single point]
56 | N#CC(c1ccc(Cl)nn1)c1ccc(Cl)cc1Cl (configuration not stated) | inconclusive: 7.94 µM [inhibitor, partial curve, poor fit]
57 | COc1ccc(-n2ncc3c2CC(C)(C)CC3NC(=O)c2ocnc2C)cc1 (configuration not stated) | inconclusive: 2.82 µM [inhibitor, partial curve, poor fit]
58 | COc1ccc(C(c2nnnn2Cc2ccccc2)N2CCN(c3nc4ccccc4s3)CC2)cc1 (configuration not stated) | active: 11.2 µM
59 | CN(C)C(Cc1ccc(C#N)cc1)C(=O)c1ccccc1 (configuration not stated) | inconclusive: 10 µM [activator, partial curve, poor fit]
60 | COCCCNC(=O)CN(c1ccc(OC)cc1)S(=O)(=O)c1ccc(NC(C)=O)cc1 | inactive
61 | CCN(CC)S(=O)(=O)c1cc(NC(=O)C(CC(C)C)NC(N)=O)ccc1C (configuration not stated) | inconclusive: 0.501 µM [inhibitor, full curve, poor fit]
62 | C=C(CN(C)C)C(=O)c1ccc(C)cc1C | inconclusive: 14.1 µM [inhibitor, single point]
63 | Cc1c(N2C(=O)/C(=C/C3CC=CCC3)SC2=S)c(=O)n(-c2ccccc2)n1C (configuration not stated) | inconclusive: 1.26 µM [inhibitor, single point]
64 | COc1ccc(CNC2CCSc3ccccc32)cc1OC (configuration not stated) | inactive
65 | Fc1ccccc1N1CCN(c2ncc3c(n2)CCN(Cc2cc(Br)cs2)C3)CC1 | inconclusive: 35.5 µM [activator, single point]
66 | Cn1nnc2c(N3CCN(c4cccc(C(F)(F)F)c4)CC3)ncnc21 | inconclusive: 6.31 µM [inhibitor, partial curve, poor fit]
67 | Cc1cccc(N2CCN(C(c3ccccc3)c3nnc(-c4ccccc4Cl)o3)CC2)c1C (configuration not stated) | inconclusive: 1.41 µM [inhibitor, partial curve, poor fit]
